Data from PubChem BioAssay AID330 (DTP/NCI, 2004).
The list shows only some results of the screen, not a fair sample: it is rich in T/C values a quarter to a half above the control, in often repeated tests (any T/C) and in doses without a T/C. Other doses and runs of a compound stand elsewhere. T/C is the treated group as % of the vehicle group. Some entries give survivors of the animals treated and no T/C: the source files T/C as zero there, which appears to mark a toxic dose or a test without result, not a measured value. Some survivor counts are full or nearly so, which does not show that the dose was tolerated: survival well below the control is almost never listed, so the zero probably covers shortened survival too. Survivors were counted at the toxicity check, usually on the fifth day, unless a day is given; later deaths do not show. Schedule codes are those of the source, taken here to give the interval after Q, in days (D) or hours (H), and the number of doses after X. Some entries hold several experiments; the results are listed from low to high. For survival time, this PubChem deposit counts one and a half times the control or more as active, and values a quarter to a half above the control carry no call in these data; other NCI protocols may use other cut-offs. Some T/C values are followed by the survivors on the day toxicity was checked, most often the fifth; without a count, all were alive then.

System: P388 leukemia ip, CD2F1 mice, survival T/C
Assay: NCI In Vivo Anticancer Drug Screen. Data for tumor model P388 Leukemia (intraperitoneal) in CD2F1 (CDF1) mice
Settings: T/C endpoint: median survival time, higher T/C = longer survival
[1] = dose: 200.0 mg/kg/injection, schedule: Q01DX009 (ip), vehicle: Klucel (hydroxypropylcellulose) (HPC)
[2] = dose: 50.0 mg/kg/injection, schedule: Q01DX005 (ip), vehicle: saline
[3] = dose: 12.5 mg/kg/injection, schedule: Q01DX005 (ip), vehicle: saline

## COc1cc2c(c(OC)c1OC)-c1ccc(OC)c(=O)cc1C(NC(=O)CO)CC2 (stereo not drawn)
dose: 0.31 mg/kg/injection, schedule: Q01DX009 (ip), vehicle: Klucel (hydroxypropylcellulose) (HPC)
  T/C: 136 and 144 % of control
dose: 1.25 mg/kg/injection, schedule: Q01DX009 (ip), vehicle: Klucel (hydroxypropylcellulose) (HPC)
  survivor count: 5 of 6 and 6 of 6
dose: 2.5 mg/kg/injection, schedule: Q01DX009 (ip), vehicle: Klucel (hydroxypropylcellulose) (HPC)
  survivor count: 3 of 6
dose: 5.0 mg/kg/injection, schedule: Q01DX009 (ip), vehicle: Klucel (hydroxypropylcellulose) (HPC)
  survivor count: 0 of 6
dose: 10.0 mg/kg/injection, schedule: Q01DX009 (ip), vehicle: Klucel (hydroxypropylcellulose) (HPC)
  survivor count: 0 of 6
dose: 20.0 mg/kg/injection, schedule: Q01DX009 (ip), vehicle: Klucel (hydroxypropylcellulose) (HPC)
  survivor count: 0 of 6
dose: 40.0 mg/kg/injection, schedule: Q01DX009 (ip), vehicle: Klucel (hydroxypropylcellulose) (HPC)
  survivor count: 0 of 6

## CN(C)c1ncnc2c1cnn2C
dose: 100.0 mg/kg/injection, schedule: Q01DX009 (ip), vehicle: saline with Tween-80
  survivor count: 6 of 6
dose: 200.0 mg/kg/injection, schedule: Q01DX009 (ip), vehicle: saline with Tween-80
  survivor count: 1 of 6

## Cc1ccc2nc(NC(=S)SSC(=S)Nc3nc4ccc(C)cc4s3)sc2c1
dose: 50.0 mg/kg/injection, schedule: Q01DX009 (ip), vehicle: Klucel (hydroxypropylcellulose) (HPC)
  survivor count: 6 of 6
dose: 100.0 mg/kg/injection, schedule: Q01DX009 (ip), vehicle: Klucel (hydroxypropylcellulose) (HPC)
  survivor count: 0 of 6
[1]
  survivor count: 0 of 6

## CN1CCN(CC(=O)N/N=C/c2ccc([N+](=O)[O-])o2)CC1
[1]
  T/C: 125 % of control [4 of 6 alive]

## COc1cc(NCCCCCCCNC(C)C)c2nccc(C)c2c1
dose: 25.0 mg/kg/injection, schedule: Q01DX009 (ip), vehicle: saline
  survivor count: 6 of 6

## CCCCCCCCNC(=O)C1C(=O)N(CCCCCCCC)C(=O)/C1=N/N (stereo not drawn)
dose: 400.0 mg/kg/injection, schedule: Q04DX002 (ip), vehicle: saline with Tween-80
  survivor count: 6 of 6

## O=C1C[C@@H]2OCC=C3C[N+]4([O-])CC[C@]56c7ccccc7N1[C@H]5[C@H]2[C@H]3C[C@@H]64 (stereo partly drawn)
[2]
  survivor count: 0 of 6

## C[CH2][Sn]1([CH2]C)[O]S(=O)(=O)[O]1
dose: 3.12 mg/kg/injection, schedule: Q01DX005 (ip), vehicle: saline, evaluated on day 20
  T/C: 125 % of control [5 of 6 alive]
dose: 3.12 mg/kg/injection, schedule: Q01DX005 (ip), vehicle: saline, evaluated on day 30
  T/C: 129 % of control
dose: 6.25 mg/kg/injection, schedule: Q01DX005 (ip), vehicle: saline, evaluated on day 20
  T/C: 128 % of control
dose: 6.25 mg/kg/injection, schedule: Q01DX005 (ip), vehicle: saline, evaluated on day 30
  T/C: 130 % of control
[3]
  T/C: 132 % of control
  survivor count: 4 of 6
[2]
  survivor count: 0 of 6
dose: 100.0 mg/kg/injection, schedule: Q01DX005 (ip), vehicle: saline
  survivor count: 0 of 6
dose: 200.0 mg/kg/injection, schedule: Q01DX005 (ip), vehicle: saline
  survivor count: 0 of 6

## O=C(NC(=O)C1CCC(=O)N1Cc1ccccc1)NC1CCC(=O)N1Cc1ccccc1 (stereo not drawn)
dose: 240.0 mg/kg/injection, schedule: Q01DX005 (ip), vehicle: saline with Tween-80
  survivor count: 6 of 6

## CCOC(=O)N(C)C(C)Cc1ccccc1 (stereo not drawn)
dose: 400.0 mg/kg/injection, schedule: Q01DX009 (ip), vehicle: saline with Tween-80
  survivor count: 3 of 6

## O=c1c(O)cc2c(O)oc3c(=O)c(O)c(O)c4c(O)oc1c2c43
dose: 400.0 mg/kg/injection, schedule: Q01DX009 (ip), vehicle: suspension in saline
  survivor count: 2 of 6

## CS(=O)(=O)C#CCCCCCCC#CS(C)(=O)=O
dose: 100.0 mg/kg/injection, schedule: Q04DX002 (ip), vehicle: saline
  survivor count: 2 of 6
dose: 200.0 mg/kg/injection, schedule: Q04DX002 (ip), vehicle: saline
  survivor count: 3 of 6
dose: 400.0 mg/kg/injection, schedule: Q04DX002 (ip), vehicle: saline
  survivor count: 4 of 6

## NC(=O)C1CNCC(C(N)=O)C1 (stereo not drawn)
dose: 100.0 mg/kg/injection, schedule: Q01DX009 (ip), vehicle: saline
  survivor count: 0 of 6
dose: 200.0 mg/kg/injection, schedule: Q01DX009 (ip), vehicle: saline
  survivor count: 0 of 6
